Experimental data: PMC7782499, “Progerinin, an optimized progerin-lamin A binding inhibitor, ameliorates premature senescence phenotypes of Hutchinson-Gilford progeria syndrome” (Communications Biology, 2021)
Several values for one entry are separate records, joined by “and”; a condition that tells them apart may be missing. Equal values may be shown once. The source gives many values for each of these; only a part stands here.

Test system: Lmna G609G/+ mouse
Test: Body weight of Lmna G609G/+ mice
Assay type: in vivo
Conditions: oral administration
Excerpt: Fig. 3 In vivo favorable effect of SLC-D011. A Gross morphology of Lmna^G609G/G609G mice (10 weeks old) was ameliorated after injection with SLC-D011. At the same age, the experimental group (D011) of mice were larger than vehicle-injected control (Con) subjects regardless of gender. B, C SLC-D011 increases body weight B and extends life span C of Lmna^G609G/G609G progeria model mouse (Con: n = 8; SLC-D011: n = 8). Compared with 14.8 weeks of average (ave) life span with maximum (max) life span of 15.5 weeks, 20 mg/kg of intraperitoneal (i.p) injection (twice a week) of SLC-D011 could extend the life span upto 19 weeks (max = 21 weeks). Lmna^G609G/G609G mice were injected with SLC-D011 from age of 5-week old, *p < 0.05. D Gross morphology of SLC-D011 injected Lmna^G609G/+ mouse. […] E SLC-D011 increases body weights of Lmna^G609G/+ mice (Con: n = 10; SLC-D011: n = 11), *p < 0.05. F Favorable effect of SLC-D011 on life span of Lmna^G609G/+ mice. Compared with vehicle-injected control group (ave = 46.7 weeks and max = 48 weeks), SLC-D011 treatment obviously extended the average life span to 63 weeks (max = 64 weeks). The injection was started from 32 weeks old, **p < 0.001. “Con” means vehicle (a solvent composed of DMSO and PBS)-injected mouse group. TEXT PRINTED IN THE PICTURE: (C) D011: Kaplan-Meier survival curve in Lmna^G609G/G609G: Ave=19; Kaplan-Meier survival curve in Lmna^G609G/G609G: Max=21 | (F) D011: Kaplan-Meier survival curve in Lmna^G609G/+: Ave=63; Kaplan-Meier survival curve in Lmna^G609G/+: Max=64 DOUBTS OF THE COPYIST ABOUT THIS PICTURE: Panels C and F: the Ave/Max labels are not printed with a group name. They are assigned to D011 (solid curve) or Con (dashed curve) only by their position beside the curves. / Panel C Ave=14.8, Max=15.5 and panel F Ave=46.7, Max=48 stand beside the dashed Con curve. They are left out because Con is the control group, not a substance. / No unit is printed with the Ave/Max values. Only the axis reads Age (weeks).
Animal experiments were performed in a facility certified by the Association for Assessment and Accreditation of Laboratory Animal Care in compliance with animal policies approved by Pusan National University. The mouse work was performed under the study protocol PNU-2019-2181, as approved by the Institutional Animal Care and Use Committee. Lmna^G609G/609G mice were generated by timed mating of heterozygous Lmna^G609G/+ provided by Carlos López-Otín (Universidad de Oviedo, Asturias, Oviedo, Spain). SLC-D011 was mixed with dimethyl sulfoxide (DMSO) and phosphate-buffered saline (PBS). It was then intraperitoneally injected into mice (20 mg/kg twice per week from 5-week-old). SLC-D011 and lonafarnib were orally administrated to mice daily at a concentration of 10 mg/ml in monoolein-based solution. Lonafarnib was generously provided by Merck, the Progeria Research Foundation (PRF) and the PRF Lonafarnib Pre-clinical Drug Supply Program. Control mice were treated with monoolein-based solution alone in the same way. Lmna^G609G/609G mice were treated with clear chemical solution throughout the life span, starting from 5 weeks of age. Lmna^G609G/+ mice were treated via intraperitoneal and oral administrations, starting from 32 weeks of age.
Fig. S10. Or al administration of SLC-D011 suppresses premature aging features of LmnaG609G/+ mi c e . A.
Gross morphology of SLC-D011 treated Lmna G609G/+ mice at 36 weeks old. B. Oral administration of SLC-
D011 increases body weight s of LmnaG609G/+ mi c e (untreated: n=11; SLC-D011: n=12), * p<0.05. C. […]
intensity of H3K9me3 levels in lung, liver, and kidney tissues of age-matched Lmn a +/+ mouse, untreated
LamnG609G/+ mouse and two progerinin- treated LmnaG609G/+ mice (n = 2 independent experiments; one
Student’s t -test), **p < 0.001,*p< 0.05, N.S: not significant .AU, arbitrary units.
Fig. S12. […] A. SLC-D011, compar ed to lonafarnib, reduces […]

For `CC1(C)Oc2cc3oc(=O)ccc3cc2C[C@@H]1OC/C=C/c1ccccc1` [SLC-D011], the “Lmna G609G/+ body weight” value (week 36, Ave) was 1, the “Lmna G609G/+ body weight” value (week 36, individual mouse) was 1 and the “Lmna G609G/+ body weight” value (week 36, individual mouse, relative body weight) was 1. For the same compound, the “Lmna G609G/+ body weight” value (week 37, Ave) was 1.027, the “Lmna G609G/+ body weight” value (week 37, individual mouse) was 0.9545 and 1 and 1.053 and 1.105 and the “Lmna G609G/+ body weight” value (week 38, Ave) was 1.017. For the same compound, the “Lmna G609G/+ body weight” value (week 38, individual mouse) was 0.9545 and 0.9565 and 1.053 and 1.043 and 1, the “Lmna G609G/+ body weight” value (week 38, individual mouse, relative body weight) was 0.9545 and 0.9565 and 1.053 and 1.043 and 1 and the “Lmna G609G/+ body weight” value (week 39, Ave) was 1.053. For the same compound, the “Lmna G609G/+ body weight” value (week 39, individual mouse) was 1.045 and 1.043 and 1.053 and 1.087 and 1, the “Lmna G609G/+ body weight” value (week 40, Ave) was 1.063 and the “Lmna G609G/+ body weight” value (week 40, individual mouse) was 1 and 1.043 and 1.105 and 1.087 and 1.053. For the same compound, the “Lmna G609G/+ body weight” value (week 40, individual mouse, relative body weight) was 1 and 1.043 and 1.105 and 1.087 and 1.053, the “Lmna G609G/+ body weight” value (week 41, Ave) was 1.0252 and the “Lmna G609G/+ body weight” value (week 41, individual mouse) was 1 and 1.043 and 1.087 and 0.9545. The “Lmna G609G/+ body weight” value (week 42, Ave) was 0.9995, the “Lmna G609G/+ body weight” value (week 42, individual mouse) was 0.9545 and 1 and 1.043 and the “Lmna G609G/+ body weight” value (week 42, individual mouse, relative body weight) was 0.9545 and 1 and 1.043. For the same compound, the “Lmna G609G/+ body weight” value (week 43, Ave) was 0.9538, the “Lmna G609G/+ body weight” value (week 43, individual mouse) was 0.9091 and 0.9565 and 0.9474 and 1 and 0.9545 and 0.9615 and the “Lmna G609G/+ body weight” value (week 44, Ave) was 0.9298. For the same compound, the “Lmna G609G/+ body weight” value (week 44, individual mouse) was 0.9091 and 0.913 and 0.8947 and 1 and 0.9545 and 0.9615, the “Lmna G609G/+ body weight” value (week 44, individual mouse, relative body weight) was 0.9091 and 0.913 and 0.8947 and 1 and 0.9545 and 0.9615 and the “Lmna G609G/+ body weight” value (week 45, Ave) was 0.9156. The “Lmna G609G/+ body weight” value (week 45, individual mouse) was 0.8636 and 0.913 and 0.8947 and 0.9565 and 0.8696 and 0.9615, the “Lmna G609G/+ body weight” value (week 46, Ave) was 0.9013 and the “Lmna G609G/+ body weight” value (week 46, individual mouse) was 0.9091 and 0.8696 and 0.8947 and 0.913 and 0.9565 and 0.9615. For the same compound, the “Lmna G609G/+ body weight” value (week 46, individual mouse, relative body weight) was 0.9091 and 0.8696 and 0.8947 and 0.913 and 0.9565 and 0.9615, the “Lmna G609G/+ body weight” value (week 47, Ave) was 0.8765 and the “Lmna G609G/+ body weight” value (week 47, individual mouse) was 0.8182 and 0.8696 and 0.8421 and 0.913 and 0.9565. The “Lmna G609G/+ body weight” value (week 48, Ave) was 0.862, the “Lmna G609G/+ body weight” value (week 48, individual mouse) was 0.8182 and 0.8261 and 0.8421 and 0.913 and 0.8696 and 0.9565 and the “Lmna G609G/+ body weight” value (week 48, individual mouse, relative body weight) was 0.8182 and 0.8261 and 0.8421 and 0.913 and 0.8696 and 0.9565. For the same compound, the “Lmna G609G/+ body weight” value (week 49, Ave) was 0.8548, the “Lmna G609G/+ body weight” value (week 49, individual mouse) was 0.8182 and 0.8261 and 0.8421 and 0.8696 and 0.9565 and the “Lmna G609G/+ body weight” value (week 50, Ave) was 0.8331. For the same compound, the “Lmna G609G/+ body weight” value (week 50, individual mouse) was 0.8182 and 0.7826 and 0.8421 and 0.8696 and 0.8261, the “Lmna G609G/+ body weight” value (week 50, individual mouse, relative body weight) was 0.8182 and 0.7826 and 0.8421 and 0.8696 and 0.8261 and the “Lmna G609G/+ body weight” value (week 51, Ave) was 0.8094. For the same compound, the “Lmna G609G/+ body weight” value (week 51, individual mouse) was 0.7727 and 0.7826 and 0.7895 and 0.8696 and 0.8261, the “Lmna G609G/+ body weight” value (week 52, Ave) was 0.7877 and the “Lmna G609G/+ body weight” value (week 52, individual mouse) was 0.7727 and 0.7391 and 0.7895 and 0.8261. The “Lmna G609G/+ body weight” value (week 52, individual mouse, relative body weight) was 0.7727 and 0.7391 and 0.7895 and 0.8261, the “Lmna G609G/+ body weight” value (week 53, Ave) was 0.7913 and the “Lmna G609G/+ body weight” value (week 53, individual mouse) was 0.7727 and 0.7391 and 0.7895 and 0.8261 and 0.7826. For the same compound, the “Lmna G609G/+ body weight” value (week 54, Ave) was 0.7841, the “Lmna G609G/+ body weight” value (week 54, individual mouse) was 0.7727 and 0.7391 and 0.7895 and 0.8261 and 0.7826 and the “Lmna G609G/+ body weight” value (week 54, individual mouse, relative body weight) was 0.7727 and 0.7391 and 0.7895 and 0.8261 and 0.7826. For the same compound, the “Lmna G609G/+ body weight” value (week 55, Ave) was 0.748 and the “Lmna G609G/+ body weight” value (week 55, individual mouse) was 0.7273 and 0.7391 and 0.7368 and 0.7826 and 0.7895.
